Where a SMILES comes first, the peptide text is derived from it.
Tested on: E. coli BL21
Details: Table II; dose-response curve fitted to Hill equation

SMILES | Hill coefficient
CC[C@H](C)[C@H](NC(=O)[C@H](CCCCN)NC(=O)[C@H](CC(C)C)NC(=O)[C@@H](NC(=O)[C@H](CCC(=O)O)NC(=O)[C@H](CCCCN)NC(=O)[C@@H]1CCCN1C(=O)[C@H](CC(C)C)NC(=O)[C@H](CCCCN)NC(=O)[C@@H](N)CCCCN)[C@@H](C)CC)C(=O)N[C@@H](CC(C)C)C(=O)NCC(=O)N[C@@H](CO)C(=O)NCC(=O)N[C@@H](Cc1ccc(O)cc1)C(=O)NCC(=O)N[C@@H](CO)C(=O)N[C@@H](CC(C)C)C(=O)N1CCC[C@H]1C(=O)N[C@@H](CCCCN)C(=O)N[C@@H](CCC(=O)O)C(=O)N[C@H](C(=O)N[C@@H](CC(C)C)C(=O)N[C@@H](CCCCN)C(=O)N[C@H](C(=O)N[C@@H](CC(C)C)C(=O)N[C@@H](CCC(=O)O)C(=O)N[C@@H](CC(C)C)C(=O)N[C@@H](CCCCN)C(=O)N[C@@H](CCCCN)C(=O)O)[C@@H](C)CC)[C@@H](C)CC [Gen-1] (H-KKLPKEILKILGSGYGSLPKEILKILELKK-OH; N-terminus and C-terminus assumed) | 41
CC[C@H](C)[C@H](NC(=O)[C@H](CCC(=O)O)NC(=O)[C@H](CC(C)C)NC(=O)[C@@H](NC(=O)[C@H](CCCCN)NC(=O)[C@H](CCC(=O)O)NC(=O)[C@@H]1CCCN1C(=O)[C@H](CC(C)C)NC(=O)[C@H](CCCCN)NC(=O)[C@@H](N)CCCCN)[C@@H](C)CC)C(=O)N[C@@H](CC(C)C)C(=O)NCC(=O)N[C@@H](CO)C(=O)NCC(=O)N[C@@H](Cc1ccc(O)cc1)C(=O)N[C@@H](CCCCN)C(=O)N[C@@H](CCCCN)C(=O)N[C@@H](CC(C)C)C(=O)N1CCC[C@H]1C(=O)N[C@@H](Cc1ccccc1)C(=O)N[C@@H](Cc1c[nH]c2ccccc12)C(=O)N[C@@H](CCC(N)=O)C(=O)N[C@@H](CCCNC(=N)N)C(=O)N[C@@H](CCCNC(=N)N)C(=O)N[C@H](C(=O)N[C@@H](CCCNC(=N)N)C(=O)N[C@@H](CCCNC(=N)N)C(=O)N[C@@H](Cc1c[nH]c2ccccc12)C(=O)N[C@@H](CCCNC(=N)N)C(=O)N[C@@H](CCCNC(=N)N)C(=O)O)[C@@H](C)CC [Gen-2] (H-KKLPEKILEILGSGYKKLPFWQRRIRRWRR-OH; N-terminus and C-terminus assumed) | 10
CC[C@H](C)[C@H](NC(=O)[C@H](CCCCN)NC(=O)[C@H](CC(C)C)NC(=O)[C@@H](NC(=O)[C@H](CCCCN)NC(=O)[C@H](CCCCN)NC(=O)[C@@H](NC(=O)[C@H](CC(C)C)NC(=O)[C@H](CCCCN)NC(=O)[C@@H](N)CCCCN)[C@@H](C)CC)[C@@H](C)CC)C(=O)N[C@@H](CC(C)C)C(=O)O [Peptide 11P-1, reference compound] (H-KKLIKKILKIL-OH; N-terminus and C-terminus assumed) | 6
CC[C@H](C)[C@H](NC(=O)[C@H](CCCNC(=N)N)NC(=O)[C@H](CCCNC(=N)N)NC(=O)[C@H](CCC(N)=O)NC(=O)[C@H](Cc1c[nH]c2ccccc12)NC(=O)[C@@H](N)Cc1ccccc1)C(=O)N[C@@H](CCCNC(=N)N)C(=O)N[C@@H](CCCNC(=N)N)C(=O)N[C@@H](Cc1c[nH]c2ccccc12)C(=O)N[C@@H](CCCNC(=N)N)C(=O)N[C@@H](CCCNC(=N)N)C(=O)O [Peptide 11P-3, reference compound] (H-FWQRRIRRWRR-OH; N-terminus and C-terminus assumed) | 4
CC[C@H](C)[C@H](NC(=O)[C@H](CCCCN)NC(=O)[C@H](CC(C)C)NC(=O)[C@@H](NC(=O)[C@H](CCCCN)NC(=O)[C@H](CCCCN)NC(=O)[C@@H]1CCCN1C(=O)[C@H](CC(C)C)NC(=O)[C@H](CCCCN)NC(=O)[C@@H](N)CCCCN)[C@@H](C)CC)C(=O)N[C@@H](CC(C)C)C(=O)NCC(=O)N[C@@H](CO)C(=O)NCC(=O)N[C@@H](Cc1ccc(O)cc1)C(=O)NCC(=O)N[C@@H](CO)C(=O)N1CCC[C@H]1C(=O)NCC(=O)N[C@@H](Cc1ccccc1)C(=O)N[C@@H](Cc1c[nH]c2ccccc12)C(=O)N[C@@H](CCC(N)=O)C(=O)N[C@@H](CCCNC(=N)N)C(=O)N[C@@H](CCCNC(=N)N)C(=O)N[C@H](C(=O)N[C@@H](CCCNC(=N)N)C(=O)N[C@@H](CCCNC(=N)N)C(=O)N[C@@H](Cc1c[nH]c2ccccc12)C(=O)N[C@@H](CCCNC(=N)N)C(=O)N[C@@H](CCCNC(=N)N)C(=O)O)[C@@H](C)CC [Peptide 30P-3] | 9
CC(C)C[C@@H]1NC(=O)[C@H](CCCNC(=N)N)NC(=O)[C@H](CCCNC(=N)N)NC(=O)[C@@H](NC(=O)[C@@H](N)CCCCN)CSSC[C@@H](C(=O)N[C@@H](CCCNC(=N)N)C(=O)NCC(=O)N[C@@H](CCCNC(=N)N)C(=O)N[C@@H](CCC(N)=O)C(=O)O)NC(=O)[C@H](Cc2ccc(O)cc2)NC(=O)[C@H]([C@@H](C)O)NC(=O)[C@H](C(C)C)NC(=O)[C@@H]2CSSC[C@H](NC1=O)C(=O)N[C@@H](Cc1ccc(O)cc1)C(=O)N[C@@H](CCCCN)C(=O)N[C@@H](CCC(N)=O)C(=O)N[C@@H](CCCNC(=N)N)C(=O)N2 [Peptide L19GA, KC2RRLC6YKQRC11VTYC15RGRQ] | 20
